Experimental data published in PMC12405003.
No constants are given. Whether binding was seen depends on the method and setting. For some of these results: Binding seen in cells or lysates may run through a third protein. Some entries that bind do so weakly or less than the wild type. For some of these results: Sequences can lack the tags named with a protein.

Amino acid sequences for entries named in this document (tags omitted). A change or cut given only in a name is not applied to a line headed by its entry. Chains listed by the source or under a name are the forms on record and can include a tag or linker.
biotinylated bls-TSC2 (P49815-5, form named): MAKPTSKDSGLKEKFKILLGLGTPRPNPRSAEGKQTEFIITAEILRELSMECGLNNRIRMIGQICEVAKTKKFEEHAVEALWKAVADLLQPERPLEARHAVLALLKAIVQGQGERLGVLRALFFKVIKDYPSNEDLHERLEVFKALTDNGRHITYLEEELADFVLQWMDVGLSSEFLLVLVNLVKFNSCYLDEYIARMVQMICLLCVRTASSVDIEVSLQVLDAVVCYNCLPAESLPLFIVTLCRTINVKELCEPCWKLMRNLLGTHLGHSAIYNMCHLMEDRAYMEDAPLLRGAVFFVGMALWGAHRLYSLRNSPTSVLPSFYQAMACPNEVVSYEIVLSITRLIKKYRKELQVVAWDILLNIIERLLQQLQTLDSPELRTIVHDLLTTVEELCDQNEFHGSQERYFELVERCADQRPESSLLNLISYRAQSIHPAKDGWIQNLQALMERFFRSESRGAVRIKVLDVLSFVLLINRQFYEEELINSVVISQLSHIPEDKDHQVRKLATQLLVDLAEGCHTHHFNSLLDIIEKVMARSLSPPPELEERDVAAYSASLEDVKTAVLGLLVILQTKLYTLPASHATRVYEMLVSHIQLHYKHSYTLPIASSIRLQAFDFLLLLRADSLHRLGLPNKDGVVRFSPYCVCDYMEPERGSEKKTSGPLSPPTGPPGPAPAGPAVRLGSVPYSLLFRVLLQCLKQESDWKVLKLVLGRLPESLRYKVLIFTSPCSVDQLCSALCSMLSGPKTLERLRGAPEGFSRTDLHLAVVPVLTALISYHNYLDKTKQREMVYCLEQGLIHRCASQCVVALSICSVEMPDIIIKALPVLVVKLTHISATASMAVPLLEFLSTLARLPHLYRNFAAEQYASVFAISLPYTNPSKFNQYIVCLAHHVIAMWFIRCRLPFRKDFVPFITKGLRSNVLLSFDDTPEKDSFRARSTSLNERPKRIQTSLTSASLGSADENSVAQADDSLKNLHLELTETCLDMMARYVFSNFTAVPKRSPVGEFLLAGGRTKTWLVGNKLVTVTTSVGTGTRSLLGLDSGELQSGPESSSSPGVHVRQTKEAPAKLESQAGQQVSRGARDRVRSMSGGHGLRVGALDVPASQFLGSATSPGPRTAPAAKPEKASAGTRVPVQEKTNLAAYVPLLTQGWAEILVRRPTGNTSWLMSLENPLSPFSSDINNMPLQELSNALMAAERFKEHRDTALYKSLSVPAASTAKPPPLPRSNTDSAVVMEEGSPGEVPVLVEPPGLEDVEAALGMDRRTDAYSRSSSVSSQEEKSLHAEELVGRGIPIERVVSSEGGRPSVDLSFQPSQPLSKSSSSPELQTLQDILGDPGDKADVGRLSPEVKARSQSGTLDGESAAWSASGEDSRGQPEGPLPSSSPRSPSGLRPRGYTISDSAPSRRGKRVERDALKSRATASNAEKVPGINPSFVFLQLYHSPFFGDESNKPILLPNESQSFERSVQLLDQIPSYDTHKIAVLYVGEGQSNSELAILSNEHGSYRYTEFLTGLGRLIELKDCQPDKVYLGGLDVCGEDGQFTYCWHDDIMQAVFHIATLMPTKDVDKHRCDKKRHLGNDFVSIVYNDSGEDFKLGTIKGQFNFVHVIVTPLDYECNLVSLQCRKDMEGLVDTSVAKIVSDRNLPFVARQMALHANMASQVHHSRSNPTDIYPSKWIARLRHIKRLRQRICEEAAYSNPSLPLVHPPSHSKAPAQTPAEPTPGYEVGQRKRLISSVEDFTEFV
UniProt P67775: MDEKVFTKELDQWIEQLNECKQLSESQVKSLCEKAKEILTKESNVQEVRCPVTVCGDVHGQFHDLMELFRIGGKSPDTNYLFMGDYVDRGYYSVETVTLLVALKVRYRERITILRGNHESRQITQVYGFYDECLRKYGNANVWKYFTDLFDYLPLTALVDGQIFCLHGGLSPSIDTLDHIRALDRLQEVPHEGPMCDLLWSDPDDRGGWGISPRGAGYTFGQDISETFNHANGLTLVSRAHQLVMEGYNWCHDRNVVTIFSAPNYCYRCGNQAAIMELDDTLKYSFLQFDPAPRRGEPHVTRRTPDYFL
UniProt P62714: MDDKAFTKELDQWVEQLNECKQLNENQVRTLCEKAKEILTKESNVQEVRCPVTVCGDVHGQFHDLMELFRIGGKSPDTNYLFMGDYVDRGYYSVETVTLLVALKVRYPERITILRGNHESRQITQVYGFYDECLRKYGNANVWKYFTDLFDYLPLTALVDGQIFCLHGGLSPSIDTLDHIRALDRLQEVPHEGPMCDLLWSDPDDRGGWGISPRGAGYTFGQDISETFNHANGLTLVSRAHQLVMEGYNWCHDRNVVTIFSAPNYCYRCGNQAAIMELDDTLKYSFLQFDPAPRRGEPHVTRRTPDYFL

B1: Flag-tagged PP2A regulatory B subunit B55δ (PPP2R2D) (protein, UniProt Q66LE6 1-453)
chain: MAGAGGGGCPAGGNDFQWCFSQVKGAIDEDVAEADIISTVEFNYSGDLLATGDKGGRVVIFQREQENKSRPHSRGEYNVYSTFQSHEPEFDYLKSLEIEEKINKIRWLPQQNAAHFLLSTNDKTIKLWKISERDKRAEGYNLKDEDGRLRDPFRITALRVPILKPMDLMVEASPRRIFANAHTYHINSISVNSDHETYLSADDLRINLWHLEITDRSFNIVDIKPANMEELTEVITAAEFHPHQCNVFVYSSSKGTIRLCDMRSSALCDRHSKFFEEPEDPSSRSFFSEIISSISDVKFSHSGRYMMTRDYLSVKVWDLNMESRPVETHQVHEYLRSKLCSLYENDCIFDKFECCWNGSDSAIMTGSYNNFFRMFDRDTRRDVTLEASRESSKPRASLKPRKVCTGGKRRKDEISVDSLDFNKKILHTAWHPVDNVIAVAATNNLYIFQDKIN

molecular target: Flag-TSC2 (1740 aa) (human) (UniProt P49815); experiment: co-IP; HEK293 lysates in CoIP lysis buffer (20 mM Tris-HCl pH 7.5, 1% Triton X-100, 10% glycerol, 137 mM NaCl, 2 mM EDTA); anti-Flag M2 antibody for 5 h at 4°C, protein G Sepharose beads, four washes; immunoblot

| binding | Molecule |
| --- | --- |
| binds | Flag-TSC2 (1740 aa) (from UniProt P49815-5 1-1740) |
| binds | endogenous PP2A-Cα (from UniProt P67775 1-309) |

molecular target: biotinylated bls-TSC2 (human) (UniProt P49815); experiment: AlphaScreen or HTRF; biotinylated bls-TSC2 (1 ul) and Flag-tagged protein (1 ul), both cell-free synthesized; streptavidin donor beads, anti-Flag M2 antibody and protein A acceptor beads; 100 mM Tris-HCl pH 8.0, 100 mM NaCl, 1 mg/ml BSA, 0.01% Tween-20; 24 h at 25°C

| binding | Molecule |
| --- | --- |
| binds | Flag-tagged PP2A regulatory B subunit B56β (PPP2R5B) (from UniProt Q15173-1 1-497) |
| binds | Flag-tagged PP2A regulatory B subunit B56δ (PPP2R5D) (from UniProt Q14738-1 1-602) |
| binds | Flag-tagged PP2A-Cα (PPP2CA) (from UniProt P67775-1 1-309) |
| binds | Flag-tagged PP2A-Cβ (PPP2CB) (from UniProt P62714 1-309) |
| binds | B1 |
